# Reference: patent US9345804B2, “S-nitrosothiol-generating skin dressings” (Insense Limited, priority 2007, dated 2016)
# Tests used:
# [1] = Rate of nitrosylation of 1-thioglycerol by nitrite, Griess method (absorbance 496 nm); format: physicochemical; settings: pH 4.0 and pH 4.5, nitrite 5 mM, 1-thioglycerol 5 mM, citrate buffer
# [2] = Rate of nitrosylation of 1-thioglycerol by nitrite, direct absorbance measurement at 338 nm; format: physicochemical; settings: pH 4.0
structure (smiles),measurement,setting,value
[Fe+2] [ferrous cations],"nitrosylation rate (Griess method, absorbance 496 nm)",[1]; 100 μM ferrous cations,increase
same,"nitrosylation rate (Griess method, absorbance 496 nm)",[1]; 250 μM ferrous cations,increase
[Zn+2] [zinc cations],rate of nitrosylation (absorbance 338 nm),"[2]; 100 μM zinc cations, nitrite 5 mM, 1-thioglycerol 5 mM, citrate buffer",increased
same,increase in nitrosylation rate (absorbance 338 nm),"[2]; 250 μM zinc cations, compared with 100 μM",more marked
